Laboratory results taken from PMC10701690, “Structural characterization of human de novo protein NCYM and its complex with a newly identified DNA aptamer using atomic force microscopy and small-angle X-ray scattering”.
These are yes or no findings as the source states them, for the method shown. Some entries that bind do so weakly or less than the wild type.

Sequences of proteins named here, by UniProt entry; tags and fusion partners are left off.
UniProt P49841: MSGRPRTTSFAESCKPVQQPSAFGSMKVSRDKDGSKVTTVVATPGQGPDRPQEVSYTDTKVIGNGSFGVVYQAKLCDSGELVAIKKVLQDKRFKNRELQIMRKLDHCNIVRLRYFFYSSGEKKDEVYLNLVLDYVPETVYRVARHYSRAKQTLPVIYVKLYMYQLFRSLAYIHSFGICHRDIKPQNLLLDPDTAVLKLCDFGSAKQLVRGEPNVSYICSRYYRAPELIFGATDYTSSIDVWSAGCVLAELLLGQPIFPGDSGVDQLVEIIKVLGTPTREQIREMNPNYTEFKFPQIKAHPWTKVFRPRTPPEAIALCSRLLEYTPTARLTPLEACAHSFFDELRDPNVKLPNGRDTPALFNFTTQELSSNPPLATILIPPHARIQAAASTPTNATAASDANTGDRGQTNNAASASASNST

Target: GSK3β (purified, Signal Chem) (UniProt P49841)
Experiment: co-IP; purified GSK3β (3.7 pmol) and NCYM (3.7 pmol) mixed in ice-cold PBS, 4°C 2 h, without or with DNA aptamer No.1 (1 or 5 eq); precipitated with anti-GSK3β on protein G Dynabeads; detected by Abby capillary immunoassay; both purified

B1: NCYM (purified, as used for immunoprecipitation) (protein, UniProt P40205 1-109)
chain: MQHPPCEPGNCLSLKEKKITEGSGGVCWGGETDASNPAPALTACCAAEREANVEQGLAGRLLLCNYERRVVRRCKIAGRGRAPLGTRPLDVSSFKLKEEGRPPCLKINK
**Q.** B1 was tested. Which binding did it give?
**A.** binds
